Measured values reported in the supplement of paper PMC10849652.
This is one part of the list.

Protein sequences, listed by entry. Tags and fused reporters are not part of them. Lines headed by an entry give the natural chain unless they say otherwise; changes in a name come on top.
UniProt Q5W0B1: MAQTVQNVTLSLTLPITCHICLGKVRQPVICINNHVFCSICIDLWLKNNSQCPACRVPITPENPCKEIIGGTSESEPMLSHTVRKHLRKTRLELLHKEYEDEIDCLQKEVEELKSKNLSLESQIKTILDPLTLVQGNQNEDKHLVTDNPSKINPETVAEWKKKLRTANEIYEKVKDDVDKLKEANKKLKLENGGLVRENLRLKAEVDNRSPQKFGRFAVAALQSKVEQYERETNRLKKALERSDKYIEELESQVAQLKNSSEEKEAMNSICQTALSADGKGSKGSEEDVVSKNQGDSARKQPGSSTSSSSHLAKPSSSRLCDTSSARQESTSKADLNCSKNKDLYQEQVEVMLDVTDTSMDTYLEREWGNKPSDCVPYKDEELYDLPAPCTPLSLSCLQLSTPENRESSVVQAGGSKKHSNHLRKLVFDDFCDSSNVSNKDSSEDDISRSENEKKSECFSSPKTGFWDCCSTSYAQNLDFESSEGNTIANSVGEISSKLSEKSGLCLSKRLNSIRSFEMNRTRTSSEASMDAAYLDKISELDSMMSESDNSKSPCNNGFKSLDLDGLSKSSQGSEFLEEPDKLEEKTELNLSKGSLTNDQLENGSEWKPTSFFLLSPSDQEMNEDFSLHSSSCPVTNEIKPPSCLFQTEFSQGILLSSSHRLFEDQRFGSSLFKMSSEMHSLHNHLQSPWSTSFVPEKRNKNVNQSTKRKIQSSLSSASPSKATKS
UniProt O60890: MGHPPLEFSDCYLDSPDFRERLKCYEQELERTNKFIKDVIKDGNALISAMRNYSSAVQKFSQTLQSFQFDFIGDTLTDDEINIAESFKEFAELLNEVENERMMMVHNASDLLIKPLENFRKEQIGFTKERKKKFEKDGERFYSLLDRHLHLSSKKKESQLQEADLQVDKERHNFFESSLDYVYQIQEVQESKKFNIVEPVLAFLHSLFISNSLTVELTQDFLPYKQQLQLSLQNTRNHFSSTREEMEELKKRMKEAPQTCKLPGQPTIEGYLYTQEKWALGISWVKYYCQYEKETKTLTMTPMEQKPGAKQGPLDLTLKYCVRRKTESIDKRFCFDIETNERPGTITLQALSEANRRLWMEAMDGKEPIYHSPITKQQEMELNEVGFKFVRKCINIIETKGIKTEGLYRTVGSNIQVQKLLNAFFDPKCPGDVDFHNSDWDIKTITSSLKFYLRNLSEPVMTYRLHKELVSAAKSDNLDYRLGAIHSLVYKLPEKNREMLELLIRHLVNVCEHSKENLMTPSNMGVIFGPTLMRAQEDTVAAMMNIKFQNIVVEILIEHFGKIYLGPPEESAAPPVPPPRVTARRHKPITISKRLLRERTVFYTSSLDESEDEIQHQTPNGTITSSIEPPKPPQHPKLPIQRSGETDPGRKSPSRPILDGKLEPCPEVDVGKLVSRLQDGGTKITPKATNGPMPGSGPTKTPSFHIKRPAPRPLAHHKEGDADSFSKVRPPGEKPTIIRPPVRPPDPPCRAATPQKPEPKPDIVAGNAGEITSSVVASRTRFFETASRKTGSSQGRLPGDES
UniProt P52948: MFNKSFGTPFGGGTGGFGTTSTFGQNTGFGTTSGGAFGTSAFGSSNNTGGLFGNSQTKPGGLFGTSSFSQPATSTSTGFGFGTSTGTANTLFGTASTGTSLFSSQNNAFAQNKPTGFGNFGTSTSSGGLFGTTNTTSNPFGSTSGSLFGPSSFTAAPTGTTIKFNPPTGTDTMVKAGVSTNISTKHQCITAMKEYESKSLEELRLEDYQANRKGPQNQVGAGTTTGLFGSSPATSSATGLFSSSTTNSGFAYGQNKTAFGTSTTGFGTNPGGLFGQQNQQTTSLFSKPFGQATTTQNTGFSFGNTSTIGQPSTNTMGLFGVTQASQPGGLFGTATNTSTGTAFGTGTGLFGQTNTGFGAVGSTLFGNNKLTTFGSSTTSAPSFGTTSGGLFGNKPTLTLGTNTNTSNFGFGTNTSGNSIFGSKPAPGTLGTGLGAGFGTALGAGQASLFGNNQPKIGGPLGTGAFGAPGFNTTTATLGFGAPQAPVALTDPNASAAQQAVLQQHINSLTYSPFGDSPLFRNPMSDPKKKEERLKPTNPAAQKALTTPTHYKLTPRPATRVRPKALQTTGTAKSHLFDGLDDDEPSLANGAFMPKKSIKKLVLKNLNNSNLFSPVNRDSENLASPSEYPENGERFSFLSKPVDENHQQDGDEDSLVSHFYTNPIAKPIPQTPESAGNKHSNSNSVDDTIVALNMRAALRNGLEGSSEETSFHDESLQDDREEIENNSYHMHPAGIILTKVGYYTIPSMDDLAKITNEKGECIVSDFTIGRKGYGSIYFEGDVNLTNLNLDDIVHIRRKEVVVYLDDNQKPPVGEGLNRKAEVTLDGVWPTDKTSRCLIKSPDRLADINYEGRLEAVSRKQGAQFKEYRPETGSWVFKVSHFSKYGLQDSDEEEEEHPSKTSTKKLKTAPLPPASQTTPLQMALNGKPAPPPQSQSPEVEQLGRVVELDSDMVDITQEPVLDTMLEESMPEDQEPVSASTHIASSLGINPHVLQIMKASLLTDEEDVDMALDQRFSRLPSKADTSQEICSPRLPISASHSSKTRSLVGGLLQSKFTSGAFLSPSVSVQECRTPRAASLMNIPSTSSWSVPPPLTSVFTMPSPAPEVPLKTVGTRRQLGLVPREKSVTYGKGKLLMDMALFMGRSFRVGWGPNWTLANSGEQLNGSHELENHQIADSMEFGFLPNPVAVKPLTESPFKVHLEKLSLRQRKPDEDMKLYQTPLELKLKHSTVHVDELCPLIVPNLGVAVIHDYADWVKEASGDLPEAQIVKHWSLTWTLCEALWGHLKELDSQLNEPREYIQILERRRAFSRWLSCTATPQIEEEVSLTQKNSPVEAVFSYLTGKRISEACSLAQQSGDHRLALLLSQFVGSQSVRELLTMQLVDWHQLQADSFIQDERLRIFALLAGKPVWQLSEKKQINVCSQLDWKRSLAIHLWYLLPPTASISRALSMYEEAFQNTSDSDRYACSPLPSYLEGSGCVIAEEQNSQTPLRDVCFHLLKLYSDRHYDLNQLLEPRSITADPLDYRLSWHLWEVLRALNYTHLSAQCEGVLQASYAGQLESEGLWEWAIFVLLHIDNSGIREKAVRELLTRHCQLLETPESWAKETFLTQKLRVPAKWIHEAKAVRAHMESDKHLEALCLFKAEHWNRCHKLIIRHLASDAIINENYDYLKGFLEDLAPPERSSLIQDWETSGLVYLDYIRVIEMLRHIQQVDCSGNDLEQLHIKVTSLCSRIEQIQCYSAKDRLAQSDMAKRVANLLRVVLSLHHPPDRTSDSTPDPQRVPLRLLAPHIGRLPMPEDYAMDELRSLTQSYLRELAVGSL
UniProt Q9BY11: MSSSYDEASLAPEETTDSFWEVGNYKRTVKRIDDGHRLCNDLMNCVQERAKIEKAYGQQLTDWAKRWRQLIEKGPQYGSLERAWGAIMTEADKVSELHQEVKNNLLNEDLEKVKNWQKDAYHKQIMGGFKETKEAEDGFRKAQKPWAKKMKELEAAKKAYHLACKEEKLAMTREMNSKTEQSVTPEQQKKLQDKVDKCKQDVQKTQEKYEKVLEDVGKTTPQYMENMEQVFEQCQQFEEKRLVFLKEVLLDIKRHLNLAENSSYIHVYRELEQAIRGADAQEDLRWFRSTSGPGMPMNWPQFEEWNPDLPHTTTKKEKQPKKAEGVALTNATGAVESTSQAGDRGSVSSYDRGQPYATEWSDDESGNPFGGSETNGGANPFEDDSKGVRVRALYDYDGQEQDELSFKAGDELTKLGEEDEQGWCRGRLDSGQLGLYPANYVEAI
UniProt P35658: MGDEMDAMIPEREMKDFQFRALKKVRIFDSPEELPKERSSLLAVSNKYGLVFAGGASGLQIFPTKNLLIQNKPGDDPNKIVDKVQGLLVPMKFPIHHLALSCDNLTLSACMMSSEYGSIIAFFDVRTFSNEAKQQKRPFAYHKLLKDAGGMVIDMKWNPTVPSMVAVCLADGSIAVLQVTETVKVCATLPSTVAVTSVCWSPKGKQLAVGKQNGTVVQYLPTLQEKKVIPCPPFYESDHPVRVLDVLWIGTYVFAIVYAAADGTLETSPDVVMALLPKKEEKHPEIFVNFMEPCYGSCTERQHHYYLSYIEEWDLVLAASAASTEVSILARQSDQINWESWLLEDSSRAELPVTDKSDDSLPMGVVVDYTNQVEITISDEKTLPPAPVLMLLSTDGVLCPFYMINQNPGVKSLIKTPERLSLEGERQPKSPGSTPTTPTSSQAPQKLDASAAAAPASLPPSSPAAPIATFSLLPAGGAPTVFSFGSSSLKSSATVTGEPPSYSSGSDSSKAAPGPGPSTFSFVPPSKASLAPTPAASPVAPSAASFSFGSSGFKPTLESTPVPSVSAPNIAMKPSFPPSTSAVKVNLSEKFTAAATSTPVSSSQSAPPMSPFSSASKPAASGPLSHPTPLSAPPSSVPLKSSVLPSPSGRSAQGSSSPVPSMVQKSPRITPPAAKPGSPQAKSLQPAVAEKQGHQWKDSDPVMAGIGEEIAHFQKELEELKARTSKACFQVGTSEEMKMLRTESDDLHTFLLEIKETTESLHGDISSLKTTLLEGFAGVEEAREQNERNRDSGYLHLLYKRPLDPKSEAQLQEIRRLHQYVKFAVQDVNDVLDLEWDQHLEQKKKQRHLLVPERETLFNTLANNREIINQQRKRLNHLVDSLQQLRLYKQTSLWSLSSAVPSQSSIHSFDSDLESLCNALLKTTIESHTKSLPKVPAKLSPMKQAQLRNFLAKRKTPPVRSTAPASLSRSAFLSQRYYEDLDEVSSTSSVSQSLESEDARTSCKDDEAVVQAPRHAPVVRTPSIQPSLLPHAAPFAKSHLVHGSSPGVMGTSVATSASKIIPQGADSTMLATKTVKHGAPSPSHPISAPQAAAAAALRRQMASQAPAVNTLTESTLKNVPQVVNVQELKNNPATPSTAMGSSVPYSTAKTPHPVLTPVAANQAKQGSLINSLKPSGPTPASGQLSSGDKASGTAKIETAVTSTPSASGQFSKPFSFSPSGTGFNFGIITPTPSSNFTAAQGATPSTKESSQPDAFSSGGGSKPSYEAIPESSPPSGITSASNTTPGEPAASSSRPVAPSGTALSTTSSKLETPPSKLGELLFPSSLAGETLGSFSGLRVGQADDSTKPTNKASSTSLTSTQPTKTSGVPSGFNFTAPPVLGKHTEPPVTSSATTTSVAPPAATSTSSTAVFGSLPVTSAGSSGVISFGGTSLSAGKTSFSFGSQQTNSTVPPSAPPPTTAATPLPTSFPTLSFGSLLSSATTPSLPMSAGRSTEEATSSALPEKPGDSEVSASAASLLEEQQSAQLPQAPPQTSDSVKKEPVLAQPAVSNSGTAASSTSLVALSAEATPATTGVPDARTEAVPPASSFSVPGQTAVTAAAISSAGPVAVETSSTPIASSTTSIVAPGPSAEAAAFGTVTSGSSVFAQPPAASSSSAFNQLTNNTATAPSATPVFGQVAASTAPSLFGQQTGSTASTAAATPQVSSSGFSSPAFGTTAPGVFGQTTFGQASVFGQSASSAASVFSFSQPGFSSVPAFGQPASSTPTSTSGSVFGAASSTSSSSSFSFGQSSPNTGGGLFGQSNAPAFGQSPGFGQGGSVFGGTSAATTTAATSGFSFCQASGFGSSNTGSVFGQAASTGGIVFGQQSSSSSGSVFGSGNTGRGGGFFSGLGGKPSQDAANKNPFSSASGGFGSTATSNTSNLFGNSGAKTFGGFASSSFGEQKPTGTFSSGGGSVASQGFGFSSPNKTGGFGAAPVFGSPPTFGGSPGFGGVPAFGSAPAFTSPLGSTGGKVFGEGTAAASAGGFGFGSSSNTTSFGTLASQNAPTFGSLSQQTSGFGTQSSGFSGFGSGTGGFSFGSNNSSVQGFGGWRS
UniProt Q5JRK9: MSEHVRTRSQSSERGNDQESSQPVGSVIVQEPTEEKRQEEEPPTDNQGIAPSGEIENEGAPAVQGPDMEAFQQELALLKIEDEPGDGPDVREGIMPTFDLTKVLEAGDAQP
UniProt O15460: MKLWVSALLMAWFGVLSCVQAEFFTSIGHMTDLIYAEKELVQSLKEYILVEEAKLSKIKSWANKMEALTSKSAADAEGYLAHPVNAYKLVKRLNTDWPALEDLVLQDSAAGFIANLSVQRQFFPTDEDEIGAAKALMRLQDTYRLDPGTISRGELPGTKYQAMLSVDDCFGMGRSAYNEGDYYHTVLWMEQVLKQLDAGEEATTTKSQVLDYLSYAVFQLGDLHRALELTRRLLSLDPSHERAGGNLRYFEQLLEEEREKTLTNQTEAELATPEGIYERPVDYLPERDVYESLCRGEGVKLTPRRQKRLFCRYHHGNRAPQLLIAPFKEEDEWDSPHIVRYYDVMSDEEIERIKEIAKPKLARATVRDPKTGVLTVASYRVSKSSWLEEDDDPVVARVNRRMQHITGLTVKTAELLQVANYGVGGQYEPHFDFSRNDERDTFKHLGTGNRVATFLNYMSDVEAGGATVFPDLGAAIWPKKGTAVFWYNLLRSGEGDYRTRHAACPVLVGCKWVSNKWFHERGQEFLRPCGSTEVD

What was measured:
Assay in all cases: log2 fold change, soluble protein after heating vs DMSO (PISA); higher = thermal stabilisation; K562 lysate, 10 uM; active = over 0.2 and 3.5 SD of the protein, either way, in both replicates (recomputed)
[1] = compound: CS(=O)(=O)CCNCc1ccc(-c2ccc3ncnc(Nc4ccc(OCc5cccc(F)c5)c(Cl)c4)c3c2)o1 [lapatinib]
In short: (§1)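 K562 pellets were dounce-homogenised in PBS pH 7.4 with 1 mM MgCl2, and the crude extract at 1 mg/mL protein was treated with 10 μM compound for 30 min. Aliquots were heated for 3 min across 48°C-58°C, pooled, and brought to 0.5% NP-40 at 4°C; soluble protein was the supernatant after 21,000xg for 90 min. Soluble protein was quantified by TMTpro 16plex LC-MS/MS with channel sums equalised, and reported as log2 fold change in thermal stability against DMSO controls, with values from duplicates.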

[2] = compound: CS(=O)(=O)N1CCN(Cc2cc3nc(-c4cccc5[nH]ncc45)nc(N4CCOCC4)c3s2)CC1 [pictilisib]
In short: as §1

[3] = compound: C[C@@H](Oc1cc(-c2cnn(C3CCNCC3)c2)cnc1N)c1c(Cl)ccc(F)c1Cl [crizotinib]
In short: as §1

[4] = compound: C[C@H](C1=CC=C(C=C1)C(=O)NC2=C3C=CNC3=NC=C2)N
In short: as §1

[5] = compound: C[C@H](Nc1ncnc2nc[nH]c12)c1cc2cccc(Cl)c2c(=O)n1-c1ccccc1 [duvelisib]
In short: as §1

[6] = compound: Cc1cc(Nc2cc(CN3CCOCC3)c3nc(C)c(Cc4ccc(Cl)cc4F)n3n2)n[nH]1 [gandotinib]
In short: as §1

[7] = compound: Cc1cc(Nc2cc(N3CCN(C)CC3)nc(Sc3ccc(NC(=O)C4CC4)cc3)n2)n[nH]1 [tozasertib]
In short: as §1

[8] = compound: Cc1ccc(-n2nc(C(C)(C)C)cc2NC(=O)Nc2ccc(OCCN3CCOCC3)c3ccccc23)cc1 [doramapimod]
In short: as §1

[9] = compound: Cc1ccc(NC(=O)c2ccc(CN3CC[C@H](N(C)C)C3)c(C(F)(F)F)c2)cc1Nc1nccc(-c2cncnc2)n1 [bafetinib]
In short: as §1

[10] = compound: Cc1cccc(CC(=O)N2CCc3c2ccc(-c2cn(C)c4ncnc(N)c24)c3F)n1
In short: as §1

[11] = compound: Cc1cn(-c2cc(NC(=O)c3ccc(C)c(Nc4nccc(-c5cccnc5)n4)c3)cc(C(F)(F)F)c2)cn1 [nilotinib]
In short: as §1

[12] = compound: Cc1nc(Nc2n[nH]c3c2CN(C(=O)N[C@H](CN(C)C)c2ccccc2)C3(C)C)c2sccc2n1
In short: as §1

[13] = compound: Cc1nc(Nc2ncc(C(=O)Nc3c(C)cccc3Cl)s2)cc(N2CCN(CCO)CC2)n1 [dasatinib]
In short: as §1

[14] = compound: Cc1ncc(-c2ccnc(Nc3ccc(S(C)(=O)=O)cc3)n2)n1C(C)C
In short: as §1

[15] = compound: Cn1cc(-c2ccc3c(c2)CCN3C(=O)Cc2cccc(C(F)(F)F)c2)c2c(N)ncnc21
In short: as §1

[16] = compound: Cn1cc(CNCC2CCN(c3ncc(C(=O)NO)cn3)CC2)c2ccccc21 [quisinostat]
In short: as §1

[17] = compound: Cn1cncc1[C@@](N)(c1ccc(Cl)cc1)c1ccc2c(c1)c(-c1cccc(Cl)c1)cc(=O)n2C [tipifarnib]
In short: as §1

[18] = compound: NC(=O)Nc1cc(-c2cccc(F)c2)sc1C(=O)N[C@H]1CCCNC1
In short: as §1

[19] = compound: NC(=O)c1cnc(N[C@@H]2CCCC[C@@H]2N)nc1Nc1cccc(-n2nccn2)c1
In short: as §1

[20] = compound: NC1(c2ccc(-c3nc4ccn5c(=O)[nH]nc5c4cc3-c3ccccc3)cc2)CCC1
In short: as §1

Measured: log2 fold change

OBI1 (UniProt Q5W0B1)
inactive: [1] 0.17 | [2] 0.019 | [3] -0.064 | [4] 0.049 | [5] 0.004 | [6] -0.153 | [7] -0.026 | [8] -0.011 | [9] -0.054 | [10] -0.01 | [11] -0.105 | [12] -0.007 | [13] 0 | [14] 0.072 | [15] 0.043 | [16] -0.093 | [17] -0.024 | [18] 0.119 | [19] -0.008 | [20] -0.034

P4HB (UniProt P07237)
inactive: [1] 0.027 | [2] 0.035 | [3] 0.105 | [4] 0.041 | [5] 0.02 | [6] -0.015 | [7] 0 | [8] -0.005 | [9] 0.056 | [10] -0.045 | [11] -0.017 | [12] 0.007 | [13] 0.033 | [14] 0 | [15] 0.016 | [16] 0.103 | [17] 0.016 | [18] -0.026 | [19] -0.009 | [20] 0.023

PACSIN3 (UniProt Q9UKS6)
inactive: [1] -0.016 | [2] -0.052 | [3] -0.039 | [4] -0.153 | [5] -0.012 | [6] -0.249 | [7] 0.02 | [8] -0.014 | [9] -0.099 | [10] -0.027 | [11] -0.01 | [12] 0.026 | [13] 0.027 | [14] -0.006 | [15] 0.041 | [16] -0.016 | [17] 0 | [18] 0.032 | [19] 0.013 | [20] 0.049

OPHN1 (UniProt O60890)
inactive: [1] -0.008 | [2] -0.046 | [4] 0.019 | [5] -0.416 | [6] -0.058 | [7] 0.053 | [9] -0.048 | [10] -0.009 | [13] 0.081 | [15] -0.188 | [19] 0.205

NUP35 (UniProt Q8NFH5)
inactive: [1] 0.025 | [2] 0.046 | [3] -0.034 | [4] 0.044 | [6] 0 | [7] -0.016 | [8] 0.104 | [9] 0.071 | [10] -0.111 | [11] 0.029 | [12] 0.015 | [14] 0.19 | [16] -0.042 | [17] 0.006 | [18] 0.005 | [19] -0.16

P2RY1 (UniProt P47900)
active: [2] -0.444
inactive: [1] -0.091 | [4] -0.02 | [5] 0.092 | [6] 0.012 | [7] 0.1 | [9] 0.021 | [10] 0.007 | [13] 0.012 | [15] -0.027 | [19] -0.182 | [20] 0.004

NUP98 (UniProt P52948)
inactive: [1] 0.007 | [2] -0.041 | [3] 0.017 | [4] -0.014 | [5] -0.04 | [6] 0.01 | [7] -0.033 | [8] -0.024 | [9] -0.024 | [10] 0.043 | [11] -0.041 | [12] -0.017 | [13] -0.053 | [14] -0.008 | [15] 0.031 | [16] -0.049 | [17] -0.12 | [18] 0.055 | [19] -0.002 | [20] 0.003

ORAI1 (UniProt Q96D31)
inactive: [1] -0.035 | [2] -0.088 | [3] -0.081 | [4] 0 | [6] 0.115 | [7] 0.085 | [8] -0.044 | [9] -0.205 | [10] 0.105 | [11] 0.059 | [12] 0.034 | [14] -0.042 | [16] 0.027 | [17] 0.012 | [18] -0.002 | [19] -0.091 | [20] -0.016

PACSIN1 (UniProt Q9BY11)
inactive: [1] 0.037 | [2] 0.029 | [4] 0.045 | [5] 0.183 | [6] -0.058 | [7] -0.013 | [9] -0.025 | [10] 0.032 | [11] -0.128 | [12] -0.027 | [13] -0.06 | [14] -0.034 | [15] -0.122 | [17] -0.194 | [19] 0.052 | [20] -0.066

OXSR1 (UniProt O95747)
inactive: [1] -0.034 | [2] -0.018 | [3] -0.026 | [4] 0.034 | [5] -0.016 | [6] -0.074 | [7] -0.004 | [8] 0.014 | [9] -0.035 | [10] -0.022 | [11] -0.002 | [12] 0.008 | [13] -0.022 | [14] -0.023 | [15] 0.024 | [16] -0.07 | [17] 0.01 | [18] 0.049 | [19] 0.034 | [20] -0.021

Quoted from the entries so far (2 entries):
NUP98 (UniProt P52948)
inactive: [1] 0.007 | [2] -0.041 | [3] 0.017 | [4] -0.014 | [5] -0.04 | [6] 0.01 | [7] -0.033 | [8] -0.024 | [9] -0.024 | [10] 0.043 | [11] -0.041 | [12] -0.017 | [13] -0.053 | [14] -0.008 | [15] 0.031 | [16] -0.049 | [17] -0.12 | [18] 0.055 | [19] -0.002 | [20] 0.003

ORAI1 (UniProt Q96D31)
inactive: [1] -0.035 | [2] -0.088 | [3] -0.081 | [4] 0 | [6] 0.115 | [7] 0.085 | [8] -0.044 | [9] -0.205 | [10] 0.105 | [11] 0.059 | [12] 0.034 | [14] -0.042 | [16] 0.027 | [17] 0.012 | [18] -0.002 | [19] -0.091 | [20] -0.016

Next records follow.

NUP214 isoform 4 (UniProt P35658)
inactive: [1] 0.068 | [2] -0.007 | [4] 0.026 | [6] -0.004 | [9] -0.058 | [10] 0.034 | [11] 0.039 | [12] -0.131 | [14] 0.027 | [17] -0.221 | [19] -0.096 | [20] 0.201

NUP160 (UniProt Q12769)
inactive: [1] 0.004 | [2] -0.046 | [3] -0.028 | [4] 0.003 | [5] -0.007 | [6] -0.102 | [7] 0.015 | [8] 0.032 | [9] -0.059 | [10] -0.007 | [11] 0.014 | [12] -0.025 | [13] -0.092 | [14] -0.032 | [15] 0.021 | [16] -0.032 | [17] -0.031 | [18] 0.009 | [19] 0.002 | [20] -0.018

PAICS (UniProt P22234)
inactive: [1] 0.019 | [2] 0.02 | [3] 0.022 | [4] -0.037 | [5] -0.012 | [6] 0.042 | [7] -0.006 | [8] -0.016 | [9] 0.171 | [10] 0.001 | [11] -0.006 | [12] -0.006 | [13] 0.05 | [14] -0.008 | [15] -0.05 | [16] 0.034 | [17] 0.008 | [18] -0.02 | [19] -0.01 | [20] 0.002

PAGE2B (UniProt Q5JRK9)
inactive: [1] 0.216 | [3] 0.051 | [4] 0.267 | [5] 0.011 | [6] -0.115 | [7] -0.017 | [8] 0.025 | [10] -0.097 | [11] 0.036 | [12] -0.007 | [13] 0.032 | [14] 0.062 | [15] -0.016 | [16] 0.001 | [17] 0.026 | [18] 0.041 | [19] -0.018 | [20] 0.164

P4HA2 (UniProt O15460)
inactive: [1] 0.013 | [2] 0.029 | [3] -0.014 | [4] 0.045 | [5] -0.015 | [6] -0.027 | [7] 0.009 | [8] -0.035 | [9] -0.014 | [10] 0.026 | [13] 0.034 | [15] 0.023 | [16] -0.032 | [18] 0.027 | [19] 0.058 | [20] 0.006
